Drawing on PubChem BioAssay AID1508600 (Functional Genomics Laboratory (NCATS/FGL), 2020), this text covers z-score for 107 sequences.

Among all 53,000 sequences or so, about 3,700 (7%) were called active.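 How the source made its calls: active means gene knockdowns whose robust z-score for IL-1 alpha signal is at least 2 or at most -2, so actives lie on both sides; inactive means the rest.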 Some of the results follow.

The test is described as follows: Components of the Cytosolic LPS Sensing Pathway: Gene Identification via Genome-wide siRNA Screen.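 Further: robust z of the log signal after scaling to non-targeting control siRNA wells of the plate.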 Particulars: RAW264.7 macrophages, IL-1a HTRF, actives lie on both sides, screened at 100 nM (by protocol), cells primed 5 h with Pam3CSK4 first. In outline:
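Mouse macrophage line RAW264.7 is transfected with siRNA (100 nM final), grown 48h, primed with TLR ligand Pam3CSK4 5 h and given intracellular LipidA 24 h. IL-1a in supernatant is read by HTRF and viability by luminescence.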
(In general: In TR-FRET formats the signal depends on donor and acceptor labels being close together.)
Take CCAAUUUACGACAAAUCGUTT against Entpd4: the z-score is inactive: -0.56. As for GGAUGACUUCACUAAGAUUTT against Dpys, the z-score is inactive: 1.33. For the sequence GCUCGCACAGAAGUUACAATT against Lrrc42, the z-score was inactive: -0.486. For CCAGUAUACCUAUGACUGCTT against Apba3 the value was inactive: 0.621. Next, GCUCAACGAACAUUUAUAGTT against Usp26: inactive: -0.158; GCGAAUUUGCCUCUUACUATT against Rad9a: inactive: 0.394. As to CCCUACGGACCGUAAAUAGTT against Psg16, the z-score was inactive: -0.0808. Consider GGUUUGAAUGUCACCGGCATT against Defb29, for which the z-score is inactive: -1.22.

In the case of CCGUAUGAACGUGUGAUAATT against Rasef, the z-score is inactive: 0.142. Next, GGUACCAUUCUGCACUACATT against Kcnh6: inactive: -0.443. Next, GCACAAAGAUCCCUCUUCATT against Olfr1162: inactive: 0.89. For CGUUUCCUGCUCAAAUCCUTT against Abhd2 the value was inactive: -1.17; for GGAGCAGGAGGUGUAUGUATT against Efs, inactive: -0.771; for GGACCUAGAGGAAGUGAAATT against Apoa1, inactive: -0.65. With GCCUGGUUAAGGCAUGAUATT against Gm4884, the z-score is active: 2.63.

With GGACUUUUAAGUUUGUAUGTT against Grpel1, the z-score is inactive: -0.39.

For the sequence CCUUCAGUAGGAGUGCUGCTT against Peg3, the z-score was inactive: 0.445. Next, GGCUGCUCUUGAAAAUGAUTT against Tspan14: inactive: -0.839; CCCUCAAUAGUGCUGGUUATT against Galp: inactive: -0.467; GGCUUUGUGCAAGGUCAUUTT against Hcrtr1: inactive: -0.881. Next, GUCUGUGACCAGUUCCAUUTT against Fgf2os: inactive: 0.354; GGCUCACUUUAUGUCGUGUTT against Atg5: inactive: -1.24.

Turning to GGACUUAUUUCUCAAGUGUTT against Cd5, the z-score is inactive: 0.08. Turning to GGCUCAGCUCCAGCAUAAUTT against Fam166b, the z-score was inactive: -0.599. Next, GUCCCUCAAAAUGACGGACTT against Tlx3: inactive: -0.417. On to “GCACAACUUGUGGUAGAAGTT against 4933409G03Rik”, for which the z-score is inactive: 1.26. As to GGUCCUGGAGGAUACUUGGTT against Slc17a3, the z-score was inactive: -1.74. Next, GCAGUUGUAGGAACCGAAATT against Cxxc5: inactive: 0.403; GCUUCAUGAUGAAUCACCUTT against Otulinl: active: -2.1; GGGAUCAUCUUGCUGUUCUTT against Cd79a: inactive: 0.0496. “GCUAUUAAGACCUUGGGAGTT against 4833432P19Rik”: the z-score is inactive: 0.32. Next, GGUGGACGGACAUUUUGUUTT against Rab9: inactive: -1.27; ACUGUAUGAAGAGGAAACATT against Krt87: active: -2.14. On to GGAAAAGAGACAGAAUUUGTT against Cd3eap, for which the z-score was inactive: -0.69. On to CGAGAUUGAUAGUACAUUCTT against Olfr1229, for which the z-score is inactive: -0.203. For GGCAGAUGCCAAUGAGGAATT against Cst3 the value was inactive: 1.48; for GGCCUGAGCUUUUUAACACTT against Slc52a3, inactive: -0.442; for GAUUGGAACUUGUGGAUCUTT against Defb8, inactive: 0.424. For GGACCAAGGCCUCACAAAATT against Nppb the value was inactive: -0.37; for GGCUGGAUGAACUUGCUCATT against Pld5, inactive: -0.348. For GGAAUCCUGUUCCUUAUCATT against Slc43a3 the value was inactive: -1.61.

In the case of GCCGGCUACUGUAUUGAAUTT against Mamdc2, the z-score was inactive: -0.0306. As for CGUAGUACCCAUGAAUUACTT against Adora2a, the z-score was active: 4.87.

“GGAGCUUUCCACUGAGUUCTT against 1700012A03Rik”: the z-score was inactive: 0.247. Regarding GGUAGAACCUAGAAGAGAGTT against Gdpd5, the z-score was inactive: 1.24. On to GCAGCUAAUGCAGAUAUUATT against Sucla2, for which the z-score is inactive: 1.09. For GGAUUUUCUGGAGUUGAUGTT against Mcoln2 the value was inactive: -1.08. With GGUCAUCAAUGCCACAGCUTT against Lpo, the z-score is active: -2.24. GCCAUUUACAUCUACAUUATT against Olfr1338: the z-score is inactive: 0.243. As for GCGGCCUCAUCAUUUCAUCTT against Actr5, the z-score is inactive: 0.312. Consider GGAAGUGGAAAAACUGGUGTT against Ddx1, for which the z-score was inactive: -1.21.

With GGACCUAUCUGAUGUCCAGTT against Il18rap, the z-score is inactive: 0.473. Consider GGCCCUCAUGAUUGCUAUGTT against Nek8, for which the z-score was inactive: -0.722. For GCCAGAAGCAGCUUACCUGTT against Sec1, the z-score was inactive: -0.451. Next, GCGACAAGGCAAAGCUAGATT against Ppp1r21: inactive: -1.26; GCAGGACCACACGUAUUCATT against Foxred1: inactive: -0.715; GGAAAGAAGAAAGAACACATT against Tmpo: inactive: 0.562. Next, GGAAAUUAGUGCUGGGCGUTT against Erbb3: inactive: 0.424; GGAGAGGUUACUUUUGAGGTT against Slc25a13: inactive: -0.606; CGGAAAACAAUAUCGUGAATT against Pfdn6: inactive: -1.65. Turning to CGAAACCUGCUUAAAACAATT against Cgas, the z-score was inactive: -0.607. Consider GACAAUACCAUAUCCUUUGTT against Olfr698, for which the z-score is inactive: 0.486. Next, GGAUUGGAUCCGAGACCAATT against Tspan17: inactive: 0.233; GCUGGAAUUCUCUUGGCUGTT against Trcg1: inactive: 0.635. For CGGUAGAACUAACGUGAUUTT against Irx2 the value was inactive: -1.38; for GGAGUUGAUCAAGACAGAGTT against S100a5, inactive: -1.6; for GGUAUCAGUCGUCUGGGAGTT against Tas2r118, inactive: 1.02.

Turning to GGCCAUGAGAAGAAGAAAGTT against Cep72, the z-score is inactive: -1.49. Next, GGGCGUACUCAACGUGAUUTT against Rbm47: inactive: 1.57; GCCUUGACGAUAGAUUAUUTT against Irf2: inactive: 1.36; GGACUUGGGUUUCAAUUCCTT against Ddx27: inactive: -0.876. As to CCCUGCAUUGCCUUAUAUCTT against Dram2, the z-score was inactive: -0.394. Regarding GGGAAGGAUGGAAAAAGAUTT against Dlc1, the z-score is inactive: -0.378. Regarding CCACACGUGUUGAACUUGATT against Dnm2, the z-score was inactive: -1.57. Regarding CAAGUACAAGCAGUUGACCTT against BC061237, the z-score was inactive: -0.0958. GCCUUGAAGGACCACUAGATT against Itgb1bp1: the z-score was inactive: 0.271. Next, GGGAAUCAAUGAAGGAUUUTT against Calcrl: inactive: -0.288; GGCAGAUUGAUAAAAUUCATT against Stag1: inactive: -0.223. Next, CCGGUAUUGUGAGCAAAUUTT against Zfp952: inactive: -0.971; GGACAGCUUUCAUGGAAAATT against Riox1: inactive: 0.569.

As to CGUGCUACGAACAUGCUGCTT against Mmd, the z-score is inactive: 0.0429. Next, GGCAUUGUUUCAGUAUUGUTT against Fndc9: inactive: -0.369. GGGUGCACUUUUGAUUCUATT against Ifitm7: the z-score is inactive: 1.2. For GGACCUAAAGAAUUCAUCGTT against Unc79 the value was inactive: 0.109; for GGCUGUUUGUGUUCUGUGCTT against Mst1, inactive: -1.89.

Consider GGGUACAUCUAACUUGAAUTT against Tnfrsf10b, for which the z-score was inactive: -0.411. For GCCAAGUAUCAUCCAUUCCTT against Olfr23, the z-score is inactive: 0.534. For GGCAGAAAAUUGUUCUUAUTT against Cpt1a the value was inactive: -1.49. Next, GGACGAGGACCAGCUAGAATT against Txn2: active: -2.07; GGUGGAGUCAAAGGAACCCTT against Tprn: inactive: -0.266; GGUCAGGUUGCCAAGAAGGTT against Sbds: inactive: 1.59. On to GCCGGAGAUUUAAUAUUGATT against Chml, for which the z-score is inactive: 0.586.

With GGACUCAUGAAAUCAAGAATT against Washc2, the z-score is inactive: 0.396. For GGAUUUAUGUGGACAACGCTT against Dnah8 the value was inactive: 0.0478. As to GGCUCAUUUGAUGGAUUUCTT against Elf5, the z-score was inactive: -0.679. Next, GGACAGCUUCCGAAACUAUTT against Miox: inactive: 0.349.

As for GGGAAAAUCUGAAGUGUAATT against Galnt13, the z-score is inactive: 0.0552. Next, GGUCCGUCUGGUAAAAAGATT against Ctnna2: inactive: 1.19; GCCAAGAAACAAUACUCAUTT against Olfr1352: inactive: 0.694; CGAGAGCUAAAAAGAGUAATT against Chd1: inactive: 0.42.

With GGGUUGCUGACUUUAGGAUTT against Lmx1a, the z-score was inactive: 0.427. “CGCACUUGACCUAGCAAGUTT against A230083G16Rik”: the z-score is inactive: 0.777.

As for GGGAACUUCCUUGAGAAGATT against Mgat4d, the z-score is inactive: 0.654. Next, GGAAGUUGAAAUGCUGUCGTT against Clcnka: active: -2.24; GGGUUCUGGGAACUUUAUATT against Bdkrb1: inactive: 1.71.

In the case of GGCUCUGUUGAAUGCAACGTT against Slc39a6, the z-score is active: -2.15. For GGGAUUAAAAGAUGACAUUTT against Dusp12, the z-score is inactive: 0.147.
